Here are results for 15 compounds from PubChem BioAssay AID270 (DTP/NCI, 2004).

The list does not hold the whole screen: it gathers tests that were run many times, whatever their T/C, doses with no T/C, and many T/C values between a quarter and a half above the control. Other doses and runs of a compound stand elsewhere. T/C gives the treated animals as a percentage of the vehicle group. Schedule codes are those of the source, read here as Q, the interval in days (D) or hours (H), X, the number of doses. Some doses have a count of surviving animals in place of a T/C: the source files T/C as zero there, which appears to mark a toxic dose or a test without result, not a measured value. Some doses without a T/C left all or most animals alive at the check, yet need not have been tolerated: the source hardly ever lists a survival T/C far under the control, and the zero likely stands for such cases as well. Survivors were counted at the toxicity check, usually on the fifth day, unless a day is given; later deaths do not show. Counts like (3×) say how often a value occurs here. Where survival is the endpoint, the PubChem record calls one and a half times the control and up active, and a quarter to a half above the control has no call in these data; cut-offs in other NCI protocols can differ. Some doses were run more than once; the values are given in rising order. Some T/C values carry the count of animals alive at the toxicity check (mostly the fifth day); without a count, all were alive then.

In this assay the test system is BDF1 mice, s.c. Lewis lung carcinoma, T/C %. Nature of the assay: NCI In Vivo Anticancer Drug Screen. Data for tumor model Lewis Lung Carcinoma (subcutaneous) in B6D2F1 (BDF1) mice. The method in brief:
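Antitumor effect in vivo is scored from survival or tumor burden, reported as treated relative to vehicle controls.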

[1] abbreviates: T/C endpoint: mean tumor weight, dose: 50.0 mg/kg/injection, schedule: Q01DX011 (ip), vehicle: carboxymethylcellulose (CMC), higher T/C = larger tumour.
The mark [2] stands for this setting: T/C endpoint: mean tumor weight, dose: 100.0 mg/kg/injection, schedule: Q01DX011 (ip), vehicle: carboxymethylcellulose (CMC), higher T/C = larger tumour.
[3] abbreviates: T/C endpoint: median survival time, dose: 150.0 mg/kg/injection, schedule: Q01DX009 (ip), vehicle: saline with Tween-80, higher T/C = longer survival.
[4] abbreviates: T/C endpoint: median survival time, dose: 4.0 micrograms/kg/injection, schedule: Q01DX009 (ip), vehicle: saline, higher T/C = longer survival.
The mark [5] stands for this setting: T/C endpoint: mean tumor weight, dose: 150.0 mg/kg/injection, schedule: Q01DX011 (ip), vehicle: saline, higher T/C = larger tumour.
Where [6] appears, read: T/C endpoint: median survival time, dose: 64.0 mg/kg/injection, schedule: Q01DX009 (ip), vehicle: saline with Tween-80, higher T/C = longer survival.

Turning to `NC(=S)N/N=C/c1nccc2ccccc12`, the survivor count (T/C endpoint: mean tumor weight, dose: 20.0 mg/kg/injection, schedule: Q01DX011 (oral), vehicle: saline, higher T/C = larger tumour) is reported as 2 of 7; the survivor count under setting [1] was 6 of 10; the survivor count (T/C endpoint: mean tumor weight, dose: 80.0 mg/kg/injection, schedule: Q01DX011 (oral), vehicle: saline, higher T/C = larger tumour) is listed as 3 of 7; the survivor count (T/C endpoint: mean tumor weight, dose: 84.0 mg/kg/injection, schedule: Q01DX011 (ip), vehicle: saline, higher T/C = larger tumour) is recorded as 3 of 6; the survivor count under setting [2] was 1 of 10; the survivor count (T/C endpoint: mean tumor weight, dose: 150.0 mg/kg/injection, schedule: Q01DX011 (ip), vehicle: carboxymethylcellulose (CMC), higher T/C = larger tumour) is 6 of 10. The survivor count is given as 0 of 7 (T/C endpoint: mean tumor weight, dose: 160.0 mg/kg/injection, schedule: Q01DX011 (oral), vehicle: saline, higher T/C = larger tumour) and 9 of 10 under setting [3]. Also, the T/C reads like this: (T/C endpoint: median survival time, dose: 9.4 mg/kg/injection, schedule: Q01DX009 (ip), vehicle: saline with Tween-80, higher T/C = longer survival) 127 % of control; (T/C endpoint: median survival time, dose: 37.5 mg/kg/injection, schedule: Q01DX009 (ip), vehicle: saline with Tween-80, higher T/C = longer survival) 129 % of control; under setting [3], 129 % of control.

Take `O=C1C=Cc2ccc(O)cc2C1=O`: the survivor count is reported as 0 of 7 (T/C endpoint: mean tumor weight, dose: 2.0 mg/kg/injection, schedule: Q01DX011 (ip), vehicle: saline, higher T/C = larger tumour); 0 of 7 (T/C endpoint: mean tumor weight, dose: 3.0 mg/kg/injection, schedule: Q01DX011 (ip), vehicle: saline, higher T/C = larger tumour); 0 of 7 (T/C endpoint: mean tumor weight, dose: 4.5 mg/kg/injection, schedule: Q01DX011 (ip), vehicle: saline, higher T/C = larger tumour); 0 of 7 (T/C endpoint: mean tumor weight, dose: 6.7 mg/kg/injection, schedule: Q01DX011 (ip), vehicle: saline, higher T/C = larger tumour).

Turning to `O=CNCCO`, the T/C (T/C endpoint: mean tumor weight, dose: 500.0 mg/kg/injection, schedule: Q01DX011 (ip), vehicle: saline, evaluated on day 12, higher T/C = larger tumour) was 139 % of control. Besides, the survivor count (T/C endpoint: mean tumor weight, dose: 1000.0 mg/kg/injection, schedule: Q01DX011 (ip), vehicle: saline, higher T/C = larger tumour) is 0 of 6.

Consider `CC[C@H]1CN2CCc3cc(OC)c(OC)cc3[C@@H]2C[C@@H]1C[C@H]1NCCc2c1[nH]c1ccc(O)cc21`, for which the survivor count was 10 of 10 (T/C endpoint: median survival time, dose: 2.0 mg/kg/injection, schedule: Q01DX009 (ip), vehicle: Klucel (hydroxypropylcellulose) (HPC), higher T/C = longer survival) and 0 of 10 (T/C endpoint: median survival time, dose: 4.0 mg/kg/injection, schedule: Q01DX009 (ip), vehicle: Klucel (hydroxypropylcellulose) (HPC), higher T/C = longer survival).

Regarding `CN(C)CCCNc1c2ccccc2nc2cccc([N+](=O)[O-])c12`, the T/C is, setting by setting: under setting [4], 131 % of control; (T/C endpoint: median survival time, dose: 8.0 micrograms/kg/injection, schedule: Q01DX009 (ip), vehicle: saline, higher T/C = longer survival) 139 % of control; (T/C endpoint: median survival time, dose: 32.0 micrograms/kg/injection, schedule: Q01DX009 (ip), vehicle: saline, higher T/C = longer survival) 128 % of control. The survivor count runs as follows: under setting [4], 10 of 10; (T/C endpoint: median survival time, dose: 16.0 micrograms/kg/injection, schedule: Q01DX009 (ip), vehicle: saline, higher T/C = longer survival) 10 of 10; (T/C endpoint: median survival time, dose: 63.0 micrograms/kg/injection, schedule: Q01DX009 (ip), vehicle: saline, higher T/C = longer survival) 10 of 10 (2×); (T/C endpoint: median survival time, dose: 125.0 micrograms/kg/injection, schedule: Q01DX009 (ip), vehicle: saline, higher T/C = longer survival) 10 of 10; (T/C endpoint: median survival time, dose: 250.0 micrograms/kg/injection, schedule: Q01DX009 (ip), vehicle: saline, higher T/C = longer survival) 10 of 10; (T/C endpoint: median survival time, dose: 500.0 micrograms/kg/injection, schedule: Q01DX009 (ip), vehicle: saline, higher T/C = longer survival) 10 of 10. For the same compound, where the note is “T/C endpoint: median survival time, dose: 1000.0 micrograms/kg/injection, schedule: Q01DX009 (ip), vehicle: saline, higher T/C = longer survival”, the survivor count is reported as 7 of 10.

On to `Cc1ccc(NC(=O)N(CCBr)N=O)cc1`, for which the survivor count (T/C endpoint: median survival time, dose: 3.12 mg/kg/injection, schedule: Q01DX009 (ip), vehicle: other, higher T/C = longer survival) was 10 of 10 and the survivor count (T/C endpoint: median survival time, dose: 12.5 mg/kg/injection, schedule: Q01DX009 (ip), vehicle: other, higher T/C = longer survival) is listed as 10 of 10.

`Nc1ncnc2c1ncn2C1OC(CO)CC1O` (configuration not stated): the survivor count reads like this: under setting [5], 0 of 6; (T/C endpoint: mean tumor weight, dose: 300.0 mg/kg/injection, schedule: Q01DX011 (ip), vehicle: saline, higher T/C = larger tumour) 0 of 6.

Turning to `CC1(C)CCC(NC(=O)N(CCF)N=O)CC1`, the T/C by setting is: (T/C endpoint: median survival time, dose: 20.0 mg/kg/injection, schedule: Q01DX009 (ip), vehicle: saline with Tween-80, higher T/C = longer survival) 137 % of control; (T/C endpoint: median survival time, dose: 37.0 mg/kg/injection, schedule: Q01DX009 (ip), vehicle: saline with Tween-80, higher T/C = longer survival) 130 % of control [8 of 9 alive]. Moreover, the survivor count (T/C endpoint: median survival time, dose: 75.0 mg/kg/injection, schedule: Q01DX009 (ip), vehicle: saline with Tween-80, higher T/C = longer survival) was 0 of 10.

On to `N#Cc1ccc(S(N)(=O)=O)cc1`, for which the survivor count reads like this: under setting [1], 3 of 6; under setting [2], 0 of 6; (T/C endpoint: mean tumor weight, dose: 200.0 mg/kg/injection, schedule: Q01DX011 (ip), vehicle: carboxymethylcellulose (CMC), higher T/C = larger tumour) 0 of 6.

Take `CC(C)(CC(=O)O)CC(=O)OCC(=O)[C@@]1(O)CC[C@H]2[C@@H]3CCC4=CC(=O)C=C[C@]4(C)[C@H]3[C@@H](O)C[C@@]21C`: the survivor count (T/C endpoint: mean tumor weight, dose: 960.0 mg/kg/injection, schedule: Q01DX011 (sc), vehicle: steroid suspending solution, higher T/C = larger tumour) is 0 of 6.

For the compound `C=C(CC(=O)O)C(=O)O` (tested in a mixture with another compound), the survivor count (T/C endpoint: median survival time, dose: 50.0 mg/kg/injection, schedule: Q01DX009 (ip), vehicle: other, higher T/C = longer survival) is listed as 9 of 10; the survivor count (T/C endpoint: median survival time, dose: 100.0 mg/kg/injection, schedule: Q01DX009 (ip), vehicle: other, higher T/C = longer survival) is 10 of 10; the survivor count (T/C endpoint: median survival time, dose: 200.0 mg/kg/injection, schedule: Q01DX009 (ip), vehicle: other, higher T/C = longer survival) is on record as 4 of 10; the survivor count (T/C endpoint: median survival time, dose: 400.0 mg/kg/injection, schedule: Q01DX009 (ip), vehicle: other, higher T/C = longer survival) is given as 1 of 10.

With `C=CC(=O)NCNC(=O)C=C`, under setting [5], the survivor count is reported as 2 of 6.

With `[I][Hg][CH2]C1COCC([CH2][Hg][I])O1.[I][Hg][CH2]C1COCC([CH2][Hg][I])O1` (configuration not stated), under “T/C endpoint: mean tumor weight, dose: 44.0 mg/kg/injection, schedule: Q01DX011 (ip), vehicle: other, higher T/C = larger tumour”, the survivor count is 0 of 6.

`O=NN(CCCl)C(=O)NC1CC2CCC1C2` (configuration not stated): the survivor count runs as follows: (T/C endpoint: median survival time, dose: 10.0 mg/kg/injection, schedule: Q01DX001 (ip), vehicle: Klucel (hydroxypropylcellulose) (HPC), higher T/C = longer survival) 10 of 10; (T/C endpoint: median survival time, dose: 20.0 mg/kg/injection, schedule: Q01DX001 (ip), vehicle: Klucel (hydroxypropylcellulose) (HPC), higher T/C = longer survival) 10 of 10; (T/C endpoint: median survival time, dose: 80.0 mg/kg/injection, schedule: Q01DX001 (ip), vehicle: Klucel (hydroxypropylcellulose) (HPC), higher T/C = longer survival) 10 of 10; (T/C endpoint: median survival time, dose: 160.0 mg/kg/injection, schedule: Q01DX001 (ip), vehicle: Klucel (hydroxypropylcellulose) (HPC), higher T/C = longer survival) 10 of 10. Moreover, the T/C (T/C endpoint: median survival time, dose: 40.0 mg/kg/injection, schedule: Q01DX001 (ip), vehicle: Klucel (hydroxypropylcellulose) (HPC), higher T/C = longer survival) was 126 and 130 % of control.

For the compound `CC(C)(C)c1ccc(CN2CCN(C(c3ccccc3)c3ccc(Cl)cc3)CC2)cc1` (configuration not stated), the T/C by setting is: (T/C endpoint: median survival time, dose: 8.0 mg/kg/injection, schedule: Q01DX009 (ip), vehicle: saline with Tween-80, higher T/C = longer survival) 96, 105, 182, 184 % of control; (T/C endpoint: median survival time, dose: 16.0 mg/kg/injection, schedule: Q01DX009 (ip), vehicle: saline with Tween-80, higher T/C = longer survival) 88, 102, 128, 173 % of control; (T/C endpoint: median survival time, dose: 32.0 mg/kg/injection, schedule: Q01DX009 (ip), vehicle: saline with Tween-80, higher T/C = longer survival) 87, 110, 140, 160 % of control; under setting [6], 117, 149, 159 % of control. Besides, the survivor count was 10 of 10 under setting [6] and 5 of 10 (T/C endpoint: median survival time, dose: 128.0 mg/kg/injection, schedule: Q01DX009 (ip), vehicle: saline with Tween-80, higher T/C = longer survival).
